Results from PubChem BioAssay AID504467 (National Center for Advancing Translational Sciences (NCATS), 2011).
The campaign covered roughly 330,000 compounds. About 7,700 (2.3%) were called active. Inconclusive results, whose numbers are uncertain, are shown with a selection of clear calls. The call rests on the fitted dose curve; in most records, active means well fitted inhibition curve with a large enough effect; inconclusive means small, poorly fitted or top-dose-only effect, or effect the other way; inactive means flat fitted curve, though single readings scatter. A potency beside an inconclusive call is a rough fit, not a confirmed value.

assay: qHTS screen for small molecules that inhibit ELG1-dependent DNA repair in human embryonic kidney (HEK293T) cells expressing luciferase-tagged ELG1; conditions: HEK293T ELG1-luciferase reporter, luminescence, 16 h, DNA damage induced by 5-fluorouridine; series mostly up to 46.1 µM; further: nearly all actives have a fitted effect of over 55% in size
In short: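 In this reporter screen, reduction of luminescence relative to DMSO vehicle indicated activity. Compounds and 5-fluorouridine were added together to 2,000 cells per well, incubated for 16 hr at 37 °C, then developed with ONE-Glo.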
Potency means the concentration at half of the fitted maximal effect.

Structure (SMILES) | Potency
COc1cc(Cl)c(C)cc1NC(=O)Cc1ccc(OC)c(OC)c1 | inconclusive: 29.1 µM [inhibitor, single point]
CCCCCC(=O)O[C@]1(C(C)=O)CC[C@H]2[C@@H]3CCC4=CC(=O)CC[C@]4(C)[C@H]3CC[C@@]21C | inactive
CCC(NC(=O)C(C)NC)C(=O)N1CCCC1C(=O)NC1CCCc2ccccc21 (centres undefined) | inactive
CCN(CC)c1ccc(-c2nn3c(-c4n[nH]c5c4CCC5)nnc3s2)cc1 | inactive
Cc1noc(C)c1/C=N/Nc1ccccn1 | inconclusive: 23.1 µM [activator, single point]
O=C(COc1ccccc1)c1cn(CC(=O)N2CCCC2)c2ccccc12 | inactive
O=C(CSc1nnc(Cc2cccs2)n1C1CCCCC1)N1CCN(C(=O)c2ccco2)CC1 | inactive
C=CCOc1ccc(C(=O)c2ccccc2)c(OCC(=O)NC2(C#N)CCCC2)c1 | inconclusive: 32.6 µM [inhibitor, single point]
COc1ccc(C(=O)CSc2nccn2C)cc1 | inconclusive: 13 µM [activator, partial curve]
CC(NC(=S)NC1CCCCC1)c1ccc(C(C)(C)C)cc1 (centres undefined) | inactive
O=C(OCC(=O)N1CCCCCC1)c1ccc[nH]c1=O | inactive
COc1cccc(C2NC(c3cccc(OC)c3O)C(C)C(=O)C2C)c1O (centres undefined) | inconclusive: 29.1 µM [inhibitor, single point]
COc1ccc(N(Cc2cc3ccccc3[nH]c2=O)S(=O)(=O)c2ccccc2)cc1 | inconclusive: 23.1 µM [inhibitor, single point]
Cc1cccc(C)c1OCCN1C(=O)NC(C)(c2ccccc2)C1=O (centres undefined) | inconclusive: 20.6 µM [inhibitor, single point]
COC(=O)C1C(O)C(C)C(O)C(C)(O)/C=C\C=C(/C)C(=O)Nc2c(C)c(OC(C)=O)c3c(c2O)C(=O)C(C)=C2OCOC(=C23)/C(C)=C/C(C)(O)C(O)C(C)C1O (centres undefined) | inactive
Clc1ccc(-c2nc3cc(CN4CCCCC4)ccc3o2)cc1 | inconclusive: 18.3 µM [activator, partial curve]
O=C(NC(=S)N1CCOCC1)c1ccc([N+](=O)[O-])cc1 | inconclusive: 20.6 µM [activator, partial curve, poor fit]
COc1ccc(NC(=O)c2ccccc2Sc2ccc(NC(C)=O)nc2)cc1 | inactive
CCCCNCCCOc1cc(Cl)ccc1Cl | inconclusive: 29.1 µM [activator, partial curve, poor fit]
O=C(NCC1CCCO1)c1cc2c(=O)[nH]c3ccccc3c2s1 (centres undefined) | inconclusive: 11.6 µM [activator, partial curve]
COc1ccc(-c2cn3ccccc3n2)cc1 | inconclusive: 1.83 µM [activator, full curve]
COc1ccc(NC(=O)CNC(c2ccccc2)c2ccccc2)cc1Cl | inconclusive: 14.6 µM [inhibitor, partial curve, poor fit]

Structures above that have a thiophene ring, fused or not (two):
Structure (SMILES) | Potency
O=C(CSc1nnc(Cc2cccs2)n1C1CCCCC1)N1CCN(C(=O)c2ccco2)CC1 | inactive
O=C(NCC1CCCO1)c1cc2c(=O)[nH]c3ccccc3c2s1 (centres undefined) | inconclusive: 11.6 µM [activator, partial curve]

Single values from the results shown:
For Potency, COc1ccc(-c2cn3ccccc3n2)cc1 has inconclusive: 1.83 µM [activator, full curve]
For Potency, Cc1noc(C)c1/C=N/Nc1ccccn1 has inconclusive: 23.1 µM [activator, single point]

The results go on.

Structure (SMILES) | Potency
O=C(CCN1CCCC1)Nc1ccccc1 | inactive
COc1cc(Cl)ccc1OCc1cc(C(=O)N(C)Cc2nnc(C)o2)no1 | inconclusive: 29.1 µM [activator, single point]
CCOC(=O)C1CCCN(C(=O)c2cc(-c3ccccc3)nc3ccccc23)C1 (centres undefined) | inconclusive: 25.9 µM [activator, partial curve, poor fit]
CSCCC1NC(=O)N(CC(=O)N2CCc3ccccc3C2)C1=O (centres undefined) | inactive
COc1ccc(CNC(=O)c2ccc(CNc3c(NC4CCCCC4)c(=O)c3=O)cc2)cc1 | inconclusive: 25.9 µM [activator, single point]
COc1cccc(C2CCCCN2Cc2nc(-c3ccc(C)o3)oc2C)c1 (centres undefined) | inconclusive: 10.3 µM [activator, partial curve, poor fit]
CN1CCN(C(=O)C2CCN(S(=O)(=O)c3ccc(F)cc3)CC2)CC1 | inconclusive: 23.1 µM [activator, partial curve, poor fit]
CCc1cccc(C)c1NC(=S)NCc1ccccc1 | inactive
Cc1ccc(N/N=C2\CS(=O)(=O)N(C)c3ccsc32)cc1 | inconclusive: 4.11 µM [activator, full curve]
Nc1c(-c2ccccc2)sc2ccc3ccccc3[n+]12 | inconclusive: 14.6 µM [activator, partial curve]
COc1cc(C#Cc2c(-c3cncn3C)n(C)c3ccc(-c4ccc5[nH]ccc5c4)cc23)cc(OC)c1 | inconclusive: 4.61 µM [inhibitor, partial curve, poor fit]
C=CCn1c(O)c(N=NC(=S)Nc2cccc(C)c2)c2ccccc21 | inactive
CCn1cc(C(=O)N[C@@H](CCSC)C(=O)NCCCN2CCOCC2)c(=O)c2cc3c(cc21)OCO3 | inactive
CC(C)Cn1c(N)c(C(=O)COC(=O)c2cccnc2Cl)c(=O)n(C)c1=O | inactive
Cc1ncoc1C(=O)N1CCCC(C(=O)c2ccc(-c3ccccc3)cc2)C1 (centres undefined) | inconclusive: 23.1 µM [inhibitor, single point]
O=C(COC(=O)c1cc(=O)[nH]c2ccccc12)c1cccs1 | inactive
CCNC(=O)C(=O)N/N=C/c1cc([N+](=O)[O-])ccc1O | inconclusive: 13 µM [inhibitor, partial curve, poor fit]
CC(C)=CC(=O)O[C@@H]1Cc2cc3ccc(=O)oc3cc2OC1(C)C | inconclusive: 13 µM [activator, partial curve, poor fit]
C=CCN(CC=C)Cc1c(C)[nH]c2c(C)c(C)ccc2c1=O | inactive
Cc1ccccc1Cn1nc(C)c(NC(=O)c2noc3c2CC(C(C)(C)C)CC3)c1C (centres undefined) | inconclusive: 16.4 µM [inhibitor, single point]
Cc1csc(NC(=O)COCC(=O)O)c1-c1nc2ccccc2s1 | inconclusive: 25.9 µM [activator, partial curve, poor fit]
O=C(Nc1ccccc1)C1=C[C@H](c2coc3ccccc3c2=O)C[C@H](OCCCCO)O1 | inconclusive: 29.1 µM [inhibitor, single point]
